Measurements taken from publication PMC2553837.
Numbering of substitutions follows the chain as printed. No constants are given. Whether binding was seen depends on the method and setting. For some of these results: Binding can be weak; no strength is given. For some of these results: Where a sequence is shown, tags or fusion partners need not be part of it.

How the values were obtained:
[1] = target: T1, XA21K668 (bait of the GAL4-based yeast two-hybrid screen) (rice (Oryza sativa)) (UniProt Q1MX30); assay: two-hybrid; GAL4-based screen of a rice (IRBB21) cDNA library with XA21K668 as bait; growth without histidine and beta-galactosidase activity; 7 x 10^7 transformants
T1 sequence: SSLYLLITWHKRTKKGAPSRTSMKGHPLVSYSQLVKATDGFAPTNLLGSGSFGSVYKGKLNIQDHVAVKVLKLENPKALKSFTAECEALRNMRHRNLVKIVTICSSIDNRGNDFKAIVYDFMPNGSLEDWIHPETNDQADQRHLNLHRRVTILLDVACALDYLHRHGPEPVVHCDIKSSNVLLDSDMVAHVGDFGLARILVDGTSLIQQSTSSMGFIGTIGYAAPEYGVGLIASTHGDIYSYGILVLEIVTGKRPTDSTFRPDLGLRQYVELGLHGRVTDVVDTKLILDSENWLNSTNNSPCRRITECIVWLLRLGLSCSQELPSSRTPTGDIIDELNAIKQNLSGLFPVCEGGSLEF

[2] = target: T2, LexA-XA21K(TDG) (rice (Oryza sativa)) (UniProt Q1MX30); assay: two-hybrid; Matchmaker LexA system, yeast pEGY48/p8op-LacZ; LexA-XA21 variants as bait, AD-XB15 as prey; lacZ reporter
T2 sequence: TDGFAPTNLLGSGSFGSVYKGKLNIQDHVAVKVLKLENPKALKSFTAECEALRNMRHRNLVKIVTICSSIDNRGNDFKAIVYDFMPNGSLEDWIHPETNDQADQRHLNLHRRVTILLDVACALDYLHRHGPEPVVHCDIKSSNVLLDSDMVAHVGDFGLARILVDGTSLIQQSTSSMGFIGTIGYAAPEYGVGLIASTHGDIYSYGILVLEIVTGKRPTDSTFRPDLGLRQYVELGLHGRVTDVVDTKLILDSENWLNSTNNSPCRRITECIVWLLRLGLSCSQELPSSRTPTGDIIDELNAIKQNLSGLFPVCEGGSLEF

[3] = target: T3, LexA-XA21K668^T688A (rice (Oryza sativa)) (UniProt Q1MX30); assay: as above
T3 sequence: T1 sequence with T21A

[4] = target: T4, LexA-XA21K668^S686A (rice (Oryza sativa)) (UniProt Q1MX30); assay: as above
T4 sequence: T1 sequence with S19A

[5] = target: T5, LexA-XA21K668 (rice (Oryza sativa)) (UniProt Q1MX30); assay: as above
T5 sequence: T1 sequence

[6] = target: T6, LexA-XA21K668^K736E (rice (Oryza sativa)) (UniProt Q1MX30); assay: as above
T6 sequence: T1 sequence with K69E

[7] = target: T7, LexA-XA21K668^S686A,T688A,S689A (rice (Oryza sativa)) (UniProt Q1MX30); assay: as above
T7 sequence: T1 sequence with S19A, T21A, S22A

[8] = target: T8, LexA-XA21K668^S697A (rice (Oryza sativa)) (UniProt Q1MX30); assay: as above
T8 sequence: T1 sequence with S30A

[9] = target: T9, LexA-XA21K668^S689A (rice (Oryza sativa)) (UniProt Q1MX30); assay: as above
T9 sequence: T1 sequence with S22A

[10] = target: T10, GST-XA21K668 (rice (Oryza sativa)) (UniProt Q1MX30); assay: pull-down; GST-XA21K668 or GST (20 ug) on glutathione-sepharose beads, HIS-XB15ΔN in solution; 20 mM Tris pH 7.5, 150 mM NaCl, 2 mM MgCl2, 0.5 mM dithiothreitol; 2 h at 4 °C; blot with anti-HIS; both purified
T10 sequence: T1 sequence

Row | Substance | binding [1] | binding [2] | binding [3] | binding [4] | binding [5] | binding [6] | binding [7] | binding [8] | binding [9] | binding [10]
1 | AD-XB15 (pAD-GAL4 containing full length of Xb15) (rice (Oryza sativa)) | binds | no binding | binds | binds | binds | no binding | binds | no binding | binds | 
2 | HIS-XB15ΔN (rice (Oryza sativa)) (domain or fragment) |  |  |  |  |  |  |  |  |  | binds
